Measured values reported in the supplement of paper PMC10849652.
The other results are listed elsewhere or left out.

The chains behind the UniProt entries cited, without tags or fusion partners. Where a name states a change or a piece, a line headed by the entry shows the natural chain unless it says otherwise.
UniProt P20645: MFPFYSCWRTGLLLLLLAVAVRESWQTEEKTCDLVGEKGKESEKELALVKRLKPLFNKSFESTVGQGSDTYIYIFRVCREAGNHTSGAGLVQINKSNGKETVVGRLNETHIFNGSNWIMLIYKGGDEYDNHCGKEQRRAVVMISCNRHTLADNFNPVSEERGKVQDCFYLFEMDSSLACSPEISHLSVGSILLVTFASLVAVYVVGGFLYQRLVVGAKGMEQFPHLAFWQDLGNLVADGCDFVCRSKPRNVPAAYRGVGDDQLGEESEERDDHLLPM
UniProt P27361, whole entry, looked up: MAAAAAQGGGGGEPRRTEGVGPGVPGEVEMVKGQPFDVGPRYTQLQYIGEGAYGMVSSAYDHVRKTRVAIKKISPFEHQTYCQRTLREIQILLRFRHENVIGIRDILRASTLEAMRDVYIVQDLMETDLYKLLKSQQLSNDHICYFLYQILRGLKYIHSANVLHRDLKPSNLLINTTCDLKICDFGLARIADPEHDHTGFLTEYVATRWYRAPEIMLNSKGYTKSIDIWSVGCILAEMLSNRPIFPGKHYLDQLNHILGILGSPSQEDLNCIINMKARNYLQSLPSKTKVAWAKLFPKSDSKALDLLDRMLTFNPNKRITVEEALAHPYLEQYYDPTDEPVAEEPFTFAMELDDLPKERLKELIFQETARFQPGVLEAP
UniProt Q96GX5: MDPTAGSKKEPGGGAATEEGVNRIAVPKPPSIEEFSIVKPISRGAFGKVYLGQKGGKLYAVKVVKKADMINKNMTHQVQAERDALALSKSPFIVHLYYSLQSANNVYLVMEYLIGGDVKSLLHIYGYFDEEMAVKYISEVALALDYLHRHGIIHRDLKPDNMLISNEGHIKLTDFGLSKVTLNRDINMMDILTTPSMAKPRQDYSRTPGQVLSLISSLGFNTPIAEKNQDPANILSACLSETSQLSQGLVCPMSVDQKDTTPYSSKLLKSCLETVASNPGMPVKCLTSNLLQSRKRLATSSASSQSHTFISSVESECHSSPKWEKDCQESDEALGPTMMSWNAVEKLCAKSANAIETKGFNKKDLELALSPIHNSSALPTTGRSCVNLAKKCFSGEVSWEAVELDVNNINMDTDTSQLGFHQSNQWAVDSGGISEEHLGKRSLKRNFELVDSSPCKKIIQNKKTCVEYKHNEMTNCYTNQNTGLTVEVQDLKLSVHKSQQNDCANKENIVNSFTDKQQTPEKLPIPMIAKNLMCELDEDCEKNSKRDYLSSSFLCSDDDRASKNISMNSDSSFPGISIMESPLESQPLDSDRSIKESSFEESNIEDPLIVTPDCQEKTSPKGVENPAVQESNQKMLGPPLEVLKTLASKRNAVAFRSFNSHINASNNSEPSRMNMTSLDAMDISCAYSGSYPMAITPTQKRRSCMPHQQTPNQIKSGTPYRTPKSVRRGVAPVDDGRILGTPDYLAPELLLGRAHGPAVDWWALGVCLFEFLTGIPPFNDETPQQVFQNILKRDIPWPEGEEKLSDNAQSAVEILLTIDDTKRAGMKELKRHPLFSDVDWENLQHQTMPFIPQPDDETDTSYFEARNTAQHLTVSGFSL
UniProt Q66K74: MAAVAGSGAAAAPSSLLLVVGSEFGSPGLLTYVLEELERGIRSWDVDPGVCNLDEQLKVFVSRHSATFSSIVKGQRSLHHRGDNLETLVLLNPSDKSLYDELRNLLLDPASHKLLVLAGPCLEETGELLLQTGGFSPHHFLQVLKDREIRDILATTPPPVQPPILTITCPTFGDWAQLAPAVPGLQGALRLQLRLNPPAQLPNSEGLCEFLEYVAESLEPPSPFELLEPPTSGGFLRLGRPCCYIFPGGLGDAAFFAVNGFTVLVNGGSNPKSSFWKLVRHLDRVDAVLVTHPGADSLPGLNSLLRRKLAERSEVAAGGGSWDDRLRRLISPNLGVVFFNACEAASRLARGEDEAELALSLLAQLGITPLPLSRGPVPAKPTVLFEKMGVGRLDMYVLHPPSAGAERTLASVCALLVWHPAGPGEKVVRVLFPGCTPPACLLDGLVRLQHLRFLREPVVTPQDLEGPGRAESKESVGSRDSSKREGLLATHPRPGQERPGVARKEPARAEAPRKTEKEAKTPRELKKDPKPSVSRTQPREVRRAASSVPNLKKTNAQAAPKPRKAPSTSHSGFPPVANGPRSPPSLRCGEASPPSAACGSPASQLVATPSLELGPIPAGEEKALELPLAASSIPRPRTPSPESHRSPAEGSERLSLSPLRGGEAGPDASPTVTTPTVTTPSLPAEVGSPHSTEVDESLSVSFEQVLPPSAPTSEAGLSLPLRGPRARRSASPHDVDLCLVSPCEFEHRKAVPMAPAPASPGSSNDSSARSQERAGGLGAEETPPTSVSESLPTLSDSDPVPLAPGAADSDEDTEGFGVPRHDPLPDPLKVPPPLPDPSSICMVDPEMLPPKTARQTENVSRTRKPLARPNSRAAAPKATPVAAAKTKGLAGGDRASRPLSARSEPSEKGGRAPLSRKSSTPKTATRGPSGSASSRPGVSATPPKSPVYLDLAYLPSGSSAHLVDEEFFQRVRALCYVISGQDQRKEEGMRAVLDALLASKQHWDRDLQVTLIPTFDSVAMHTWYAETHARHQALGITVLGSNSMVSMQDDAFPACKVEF
UniProt Q16644, whole entry, looked up: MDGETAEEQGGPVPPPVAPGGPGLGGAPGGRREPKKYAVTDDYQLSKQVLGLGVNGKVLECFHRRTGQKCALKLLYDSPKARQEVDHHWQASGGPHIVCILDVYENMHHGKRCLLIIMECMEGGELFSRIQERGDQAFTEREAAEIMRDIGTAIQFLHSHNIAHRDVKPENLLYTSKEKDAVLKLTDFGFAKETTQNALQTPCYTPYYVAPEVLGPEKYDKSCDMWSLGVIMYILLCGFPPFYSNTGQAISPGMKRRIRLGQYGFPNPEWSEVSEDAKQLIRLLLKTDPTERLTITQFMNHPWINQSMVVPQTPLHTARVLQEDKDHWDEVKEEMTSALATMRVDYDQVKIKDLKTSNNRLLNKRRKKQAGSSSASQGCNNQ
UniProt Q8IZL2, whole entry, looked up: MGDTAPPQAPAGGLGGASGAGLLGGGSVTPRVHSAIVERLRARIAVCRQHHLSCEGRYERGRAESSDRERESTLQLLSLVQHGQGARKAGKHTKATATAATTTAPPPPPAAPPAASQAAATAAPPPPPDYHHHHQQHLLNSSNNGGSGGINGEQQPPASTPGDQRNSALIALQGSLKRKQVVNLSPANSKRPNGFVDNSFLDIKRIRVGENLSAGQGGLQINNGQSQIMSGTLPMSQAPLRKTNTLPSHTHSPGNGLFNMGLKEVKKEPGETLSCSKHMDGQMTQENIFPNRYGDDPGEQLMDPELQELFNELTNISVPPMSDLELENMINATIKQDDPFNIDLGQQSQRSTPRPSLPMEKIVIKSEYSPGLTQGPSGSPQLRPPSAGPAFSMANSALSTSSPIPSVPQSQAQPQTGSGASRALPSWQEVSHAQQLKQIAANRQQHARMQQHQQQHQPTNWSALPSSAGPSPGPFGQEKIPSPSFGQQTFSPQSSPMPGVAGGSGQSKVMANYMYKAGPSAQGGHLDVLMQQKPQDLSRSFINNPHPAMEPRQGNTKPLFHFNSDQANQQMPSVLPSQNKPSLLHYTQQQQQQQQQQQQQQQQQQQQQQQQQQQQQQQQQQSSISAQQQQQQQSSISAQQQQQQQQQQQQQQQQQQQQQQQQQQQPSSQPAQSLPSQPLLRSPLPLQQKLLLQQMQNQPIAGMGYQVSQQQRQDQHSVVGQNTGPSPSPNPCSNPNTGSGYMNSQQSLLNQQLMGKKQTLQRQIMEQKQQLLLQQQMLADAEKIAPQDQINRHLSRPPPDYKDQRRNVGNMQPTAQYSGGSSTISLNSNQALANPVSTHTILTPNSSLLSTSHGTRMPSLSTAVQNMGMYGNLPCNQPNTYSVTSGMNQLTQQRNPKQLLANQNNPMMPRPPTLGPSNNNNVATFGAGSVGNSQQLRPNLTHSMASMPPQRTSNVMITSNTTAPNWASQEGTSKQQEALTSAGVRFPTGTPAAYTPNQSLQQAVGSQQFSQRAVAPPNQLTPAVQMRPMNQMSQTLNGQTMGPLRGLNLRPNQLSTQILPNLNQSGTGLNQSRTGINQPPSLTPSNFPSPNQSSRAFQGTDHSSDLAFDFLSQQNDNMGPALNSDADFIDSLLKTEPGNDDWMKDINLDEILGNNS
UniProt O95372: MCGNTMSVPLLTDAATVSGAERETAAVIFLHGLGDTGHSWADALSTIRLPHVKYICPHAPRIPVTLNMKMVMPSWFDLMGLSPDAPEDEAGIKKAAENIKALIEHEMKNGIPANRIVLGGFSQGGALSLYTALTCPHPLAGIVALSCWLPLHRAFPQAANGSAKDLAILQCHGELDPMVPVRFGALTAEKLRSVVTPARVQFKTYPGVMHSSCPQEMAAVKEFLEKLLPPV
UniProt Q8WWC4: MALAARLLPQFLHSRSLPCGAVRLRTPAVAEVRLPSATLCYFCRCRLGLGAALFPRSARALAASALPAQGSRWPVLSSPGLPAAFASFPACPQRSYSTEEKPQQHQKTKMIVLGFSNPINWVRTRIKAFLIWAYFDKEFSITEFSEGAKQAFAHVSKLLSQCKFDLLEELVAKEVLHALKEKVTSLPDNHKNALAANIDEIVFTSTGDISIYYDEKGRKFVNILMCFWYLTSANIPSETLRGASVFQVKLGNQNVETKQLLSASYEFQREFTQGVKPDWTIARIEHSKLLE
UniProt Q9P0L2: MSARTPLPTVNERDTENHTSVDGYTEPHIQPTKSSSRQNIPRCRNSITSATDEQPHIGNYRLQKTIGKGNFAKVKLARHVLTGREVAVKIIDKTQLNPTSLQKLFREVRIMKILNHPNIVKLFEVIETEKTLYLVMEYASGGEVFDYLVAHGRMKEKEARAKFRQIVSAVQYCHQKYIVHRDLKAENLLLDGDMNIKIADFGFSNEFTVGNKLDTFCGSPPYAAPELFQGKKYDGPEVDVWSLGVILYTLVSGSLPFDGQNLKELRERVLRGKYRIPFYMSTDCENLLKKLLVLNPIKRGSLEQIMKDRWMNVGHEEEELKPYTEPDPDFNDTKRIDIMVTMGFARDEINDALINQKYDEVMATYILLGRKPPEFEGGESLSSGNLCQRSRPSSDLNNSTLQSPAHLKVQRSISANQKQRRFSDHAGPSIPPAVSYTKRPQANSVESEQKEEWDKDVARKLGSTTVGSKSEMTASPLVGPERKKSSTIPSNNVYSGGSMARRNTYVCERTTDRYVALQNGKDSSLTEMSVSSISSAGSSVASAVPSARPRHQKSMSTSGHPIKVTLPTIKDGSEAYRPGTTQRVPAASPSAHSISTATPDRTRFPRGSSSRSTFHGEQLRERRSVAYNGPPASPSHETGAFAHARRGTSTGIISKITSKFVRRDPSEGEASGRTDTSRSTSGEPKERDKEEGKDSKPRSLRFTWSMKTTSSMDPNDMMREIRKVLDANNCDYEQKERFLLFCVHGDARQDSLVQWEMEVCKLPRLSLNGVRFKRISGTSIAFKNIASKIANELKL
UniProt Q96GW9: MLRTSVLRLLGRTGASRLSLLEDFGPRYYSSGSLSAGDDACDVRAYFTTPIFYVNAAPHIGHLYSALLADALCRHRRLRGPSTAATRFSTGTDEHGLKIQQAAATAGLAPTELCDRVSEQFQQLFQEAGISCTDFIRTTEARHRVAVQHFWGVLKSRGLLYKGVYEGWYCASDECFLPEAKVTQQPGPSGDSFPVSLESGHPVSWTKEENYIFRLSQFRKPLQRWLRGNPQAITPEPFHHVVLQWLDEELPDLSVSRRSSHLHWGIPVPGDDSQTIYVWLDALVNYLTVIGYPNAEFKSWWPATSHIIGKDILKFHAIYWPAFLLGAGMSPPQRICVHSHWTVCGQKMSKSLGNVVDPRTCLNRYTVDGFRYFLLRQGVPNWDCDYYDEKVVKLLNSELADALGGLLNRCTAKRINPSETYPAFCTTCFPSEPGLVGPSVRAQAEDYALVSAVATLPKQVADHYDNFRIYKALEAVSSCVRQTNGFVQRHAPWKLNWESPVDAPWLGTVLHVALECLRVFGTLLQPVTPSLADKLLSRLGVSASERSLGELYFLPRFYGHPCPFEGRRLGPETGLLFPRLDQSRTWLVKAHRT
UniProt P43355: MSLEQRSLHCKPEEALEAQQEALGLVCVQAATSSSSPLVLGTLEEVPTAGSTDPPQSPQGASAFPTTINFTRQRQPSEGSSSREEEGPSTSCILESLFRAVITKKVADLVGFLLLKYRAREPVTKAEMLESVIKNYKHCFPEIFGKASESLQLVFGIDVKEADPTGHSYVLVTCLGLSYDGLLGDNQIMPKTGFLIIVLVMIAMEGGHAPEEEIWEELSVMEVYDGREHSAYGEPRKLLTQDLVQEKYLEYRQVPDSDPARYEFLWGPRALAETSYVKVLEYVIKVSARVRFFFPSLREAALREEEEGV
UniProt P49006: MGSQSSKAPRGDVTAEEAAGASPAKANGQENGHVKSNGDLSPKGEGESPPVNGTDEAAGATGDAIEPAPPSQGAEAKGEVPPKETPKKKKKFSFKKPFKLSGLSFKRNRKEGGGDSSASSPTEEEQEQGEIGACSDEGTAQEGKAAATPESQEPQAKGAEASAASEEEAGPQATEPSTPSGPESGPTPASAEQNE

Assays:
Assay in all cases: log2 fold change, soluble protein after heating vs DMSO (PISA); higher = thermal stabilisation; K562 lysate, 10 uM; active = over 0.2 and 3.5 SD of the protein, either way, in both replicates (recomputed)
vemurafenib = compound: CCCS(=O)(=O)Nc1ccc(F)c(C(=O)c2c[nH]c3ncc(-c4ccc(Cl)cc4)cc23)c1F [vemurafenib]
In short: (§1)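 Pellets of K562 cells were dounce-homogenised in PBS pH 7.4 with 1 mM MgCl2, and the crude extract was held at 1 mg/mL protein for a 30 min treatment with 10 μM compound. Aliquots were heated for 3 min over 48°C-58°C and pooled before NP-40 was added to 0.5% at 4°C. The supernatant from 21,000xg for 90 min was quantified by TMTpro 16plex LC-MS/MS with channel sums equalised. Values are reported from duplicates as log-two fold change in thermal stability relative to solvent controls.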

[1] = compound: CCCS(=O)(=O)Nc1ccc(F)c(C(=O)c2c[nH]c3ncc(Cl)cc23)c1F
In short: as §1

barasertib = compound: CCN(CCCOc1ccc2c(Nc3cc(CC(=O)Nc4cccc(F)c4)[nH]n3)ncnc2c1)CCOP(=O)(O)O [barasertib]
In short: as §1

[2] = compound: CC[C@@H]1C(=O)N(C)c2cnc(Nc3ccc(C(=O)NC4CCN(C)CC4)cc3OC)nc2N1C1CCCC1
In short: as §1

volasertib = compound: CC[C@@H]1C(=O)N(C)c2cnc(Nc3ccc(C(=O)N[C@H]4CC[C@H](N5CCN(CC6CC6)CC5)CC4)cc3OC)nc2N1C(C)C [volasertib]
In short: as §1

[3] = compound: CCn1c(C(=O)N(C2CC2)C2CC2)cc2c3c(ncn3C)c(Nc3cc(C)n(C)n3)nc21
In short: as §1

[4] = compound: CCn1cc(-c2ccnc3[nH]c(-c4cccc(CN(C)C)c4)cc23)c(-c2ccc(NC(=O)N(C)C)cc2)n1
In short: as §1

[5] = compound: CN1CCC(CNc2ccc3ncc(-c4cccc(OC(F)(F)F)c4)n3n2)CC1
In short: as §1

saracatinib = compound: CN1CCN(CCOc2cc(OC3CCOCC3)c3c(Nc4c(Cl)ccc5c4OCO5)ncnc3c2)CC1 [saracatinib]
In short: as §1

sotrastaurin = compound: CN1CCN(c2nc(C3=C(c4c[nH]c5ccccc45)C(=O)NC3=O)c3ccccc3n2)CC1 [sotrastaurin]
In short: as §1

alvocidib = compound: CN1CC[C@H](c2c(O)cc(O)c3c(=O)cc(-c4ccccc4Cl)oc23)[C@H](O)C1 [alvocidib]
In short: as §1

Tubastatin A = compound: CN1CCc2c(c3ccccc3n2Cc2ccc(C(=O)NO)cc2)C1 [Tubastatin A]
In short: as §1

[6] = compound: CNC(=O)C1=CC=CC=C1NC2=NC(=NC=C2Cl)NC3=C(C=C(C=C3)N4CCOCC4)OC
In short: as §1

defactinib = compound: CNC(=O)c1ccc(Nc2ncc(C(F)(F)F)c(NCc3nccnc3N(C)S(C)(=O)=O)n2)cc1 [defactinib]
In short: as §1

[7] = compound: CNc1nc(-c2ccc3c(N)n[nH]c3c2)cc(N2C[C@@H](C(=O)NC3CCCCC3)CC[C@H]2C)n1
In short: as §1

encorafenib = compound: COC(=O)N[C@@H](C)CNc1nccc(-c2cn(C(C)C)nc2-c2cc(Cl)cc(NS(C)(=O)=O)c2F)n1 [encorafenib]
In short: as §1

[8] = compound: COC(=O)[C@H](CCSC)NC(=O)C1=C(C=C(C=C1)NC[C@H](CS)N)C2=CC=CC=C2
In short: as §1

alisertib = compound: COc1cc(Nc2ncc3c(n2)-c2ccc(Cl)cc2C(c2c(F)cccc2OC)=NC3)ccc1C(=O)O [alisertib]
In short: as §1

[9] = compound: COc1cc2nc(-c3cc(F)ccc3O)nc(N[C@@H]3CNC[C@H]3C(C)(C)O)c2cc1OC
In short: as §1

gefitinib = compound: COc1cc2ncnc(Nc3ccc(F)c(Cl)c3)c2cc1OCCCN1CCOCC1 [gefitinib]
In short: as §1

Row | Target | log2 fold change (vemurafenib) | log2 fold change [1] | log2 fold change (barasertib) | log2 fold change [2] | log2 fold change (volasertib) | log2 fold change [3] | log2 fold change [4] | log2 fold change [5] | log2 fold change (saracatinib) | log2 fold change (sotrastaurin) | log2 fold change (alvocidib) | log2 fold change (Tubastatin A) | log2 fold change [6] | log2 fold change (defactinib) | log2 fold change [7] | log2 fold change (encorafenib) | log2 fold change [8] | log2 fold change (alisertib) | log2 fold change [9] | log2 fold change (gefitinib)
1 | M6PR (UniProt P20645) | inactive: 0.003 | inactive: 0.013 | inactive: -0.022 | inactive: 0.051 | inactive: -0.013 | inactive: -0.007 | inactive: 0.014 | inactive: 0.018 | inactive: 0.007 | inactive: 0.081 | inactive: -0.031 | inactive: 0.076 | inactive: 0.004 | inactive: -0.061 | inactive: -0.004 | inactive: -0.026 | inactive: -0.056 | inactive: -0.018 | inactive: 0.014 | inactive: 0.032
2 | MAP2K7 isoform 4 (UniProt O14733) | inactive: 0.073 | inactive: 0.087 | inactive: -0.02 | inactive: 0.016 | inactive: -0.04 | inactive: 0.042 | inactive: 0.004 | inactive: -0.02 | inactive: 0.032 | inactive: 0.02 | inactive: 0.023 | inactive: -0.15 | inactive: 0.023 | inactive: -0.035 | inactive: 0.036 | inactive: -0.059 | inactive: 0.177 | inactive: 0.006 | inactive: -0.009 | inactive: -0.08
3 | LYRM7 (UniProt Q5U5X0) | inactive: 0.033 | inactive: 0.025 | inactive: 0.027 | inactive: -0.026 | inactive: 0.056 | inactive: 0.03 | inactive: -0.061 | inactive: 0.001 | inactive: 0.013 | inactive: -0.018 | inactive: 0.046 | inactive: 0.019 | inactive: 0.005 | inactive: -0.072 | inactive: 0.022 | inactive: -0.038 | inactive: -0.04 | inactive: 0.046 | inactive: -0.065 | inactive: 0.019
4 | MAPK3 (UniProt P27361) | inactive: 0.013 | inactive: -0.024 | inactive: -0.026 | inactive: 0.01 | inactive: -0.011 | inactive: -0.031 | inactive: 0 | inactive: 0.026 | inactive: 0 | inactive: -0.017 | inactive: 0.018 | inactive: 0.037 | active: 0.29 | inactive: 0.061 | inactive: 0.079 | inactive: -0.035 | inactive: 0.05 | inactive: -0.028 | inactive: 0.052 | inactive: -0.018
5 | MASTL (UniProt Q96GX5) | inactive: 0.039 | inactive: -0.021 | inactive: 0.058 | inactive: 0.03 | inactive: -0.031 | inactive: -0.123 | inactive: -0.231 | inactive: 0.002 | inactive: 0.006 | inactive: -0.02 | inactive: -0.01 | inactive: -0.151 | inactive: 0.007 | inactive: -0.104 | inactive: -0.017 | inactive: 0 | inactive: 0.008 | inactive: 0.05 | inactive: 0.08 | inactive: -0.003
6 | MAP1S (UniProt Q66K74) | inactive: -0.004 | inactive: 0.041 | inactive: 0.002 | inactive: -0.035 | inactive: -0.024 | inactive: -0.01 | inactive: -0.056 | inactive: -0.022 | inactive: 0.038 | inactive: 0.037 | inactive: 0.027 | inactive: -0.072 | inactive: -0.01 | inactive: 0.018 | inactive: -0.015 | inactive: 0.008 | inactive: 0.06 | inactive: 0.006 | inactive: -0.008 | inactive: -0.021
7 | MAN1B1 (UniProt Q9UKM7) | inactive: 0.072 | inactive: -0.04 | inactive: 0.068 | inactive: -0.034 | inactive: -0.018 | inactive: -0.041 | inactive: -0.075 | inactive: 0.111 | inactive: 0.024 | inactive: 0.053 | inactive: -0.056 | inactive: 0.008 | inactive: 0.014 | inactive: 0.028 | inactive: -0.001 | inactive: 0.073 | inactive: -0.111 | inactive: 0.086 | inactive: -0.005 | inactive: 0.013
8 | MAPKAPK3 (UniProt Q16644) | inactive: -0.02 | inactive: -0.018 | inactive: 0.015 | inactive: -0.145 | inactive: 0.002 | inactive: 0.028 | inactive: -0.001 | inactive: -0.067 | inactive: 0.003 | inactive: -0.014 | inactive: 0.038 | inactive: -0.125 | inactive: 0.015 | inactive: 0.033 | inactive: -0.11 | inactive: -0.015 | inactive: 0.055 | inactive: -0.055 | inactive: 0.006 | inactive: 0.148
9 | MAML2 (UniProt Q8IZL2) | inactive: 0.016 | inactive: 0.111 | inactive: 0.099 | inactive: 0.19 | inactive: 0.119 | inactive: 0.029 | inactive: 0.042 | inactive: -0.029 | inactive: -0.211 | inactive: -0.043 | inactive: 0.035 | inactive: 0.011 | inactive: 0.04 | inactive: 0.007 | inactive: 0.134 | inactive: 0.151 | inactive: -0.013 | inactive: 0.026 | inactive: 0.078 | inactive: 0.071
10 | LYPLA2 (UniProt O95372) | inactive: -0.034 | inactive: -0.017 | inactive: 0.087 | inactive: -0.113 | inactive: 0.022 | inactive: 0.063 | inactive: -0.029 | inactive: -0.117 | inactive: 0.013 | inactive: -0.083 | inactive: 0.131 | inactive: 0.029 | inactive: 0.069 | inactive: 0.214 | inactive: -0.03 | inactive: -0.016 | inactive: 0.014 | inactive: 0 | inactive: -0.083 | inactive: -0.181
11 | MARS (UniProt P56192) | inactive: 0.042 | inactive: 0.005 | inactive: -0.005 | inactive: -0.079 | inactive: -0.069 | inactive: 0.028 | inactive: -0.041 | inactive: -0.02 | inactive: 0.009 | inactive: 0.023 | inactive: 0.015 | inactive: -0.095 | inactive: 0.018 | inactive: 0.008 | inactive: -0.031 | inactive: -0.012 | inactive: 0.118 | inactive: 0.026 | inactive: 0.011 | inactive: -0.048
12 | MAIP1 (UniProt Q8WWC4) | inactive: 0.058 | inactive: 0.038 | inactive: 0.018 | inactive: -0.088 | inactive: 0.012 | inactive: -0.038 | inactive: -0.02 | inactive: -0.184 | inactive: 0.041 | inactive: 0.007 | inactive: 0.021 | inactive: -0.126 | inactive: 0.014 | inactive: 0.022 | inactive: -0.003 | inactive: -0.046 | inactive: -0.02 | inactive: 0.011 | inactive: -0.098 | inactive: -0.015
13 | MARK1 (UniProt Q9P0L2) | inactive: -0.006 | inactive: 0.064 | inactive: -0.038 | inactive: -0.045 | inactive: -0.019 | inactive: -0.018 | inactive: -0.06 | inactive: -0.241 | inactive: 0.021 | inactive: -0.17 | inactive: -0.053 | inactive: -0.087 | inactive: -0.27 | inactive: -0.267 | inactive: 0.072 | inactive: 0.075 | inactive: 0.226 | inactive: -0.007 | inactive: -0.134 | inactive: -0.004
14 | MARS2 (UniProt Q96GW9) | inactive: 0.021 | inactive: -0.004 | inactive: -0.009 | inactive: 0 | inactive: 0.007 | inactive: -0.052 | inactive: 0.008 | inactive: 0.005 | inactive: -0.016 | inactive: -0.01 | inactive: 0.03 | inactive: 0.026 | inactive: 0.071 | inactive: 0.015 | inactive: 0.079 | inactive: 0.019 | inactive: -0.148 | inactive: -0.053 | inactive: -0.002 | inactive: 0.002
15 | MAGEA1 (UniProt P43355) | inactive: -0.036 | inactive: 0.033 | inactive: 0.116 | inactive: -0.023 | inactive: -0.016 | inactive: -0.028 | inactive: 0.12 | inactive: -0.044 | inactive: 0.029 | inactive: 0.044 | inactive: 0.056 | inactive: -0.053 | inactive: 0.021 | inactive: -0.008 | inactive: -0.034 | inactive: 0.084 | inactive: 0.004 | inactive: 0.047 | inactive: -0.103 | inactive: 0.001
16 | MARCKSL1 (UniProt P49006) | inactive: -0.012 | inactive: -0.029 | inactive: -0.008 | inactive: 0.023 | inactive: 0.073 | inactive: 0.136 | inactive: 0.182 | inactive: -0.175 | inactive: -0.065 | inactive: 0.033 | inactive: 0.101 | inactive: -0.026 | inactive: -0.022 | inactive: 0.208 | inactive: -0.052 | inactive: -0.02 | inactive: -0.031 | inactive: -0.04 | inactive: 0 | inactive: 0.04
